In patent publication US20210154156A1, “APPLICATION OF COMPOUND IN INHIBITING AB ACCUMULATION AND TREATING ALZHEIMER'S DISEASE” (NORTHEAST NORMAL UNIVERSITY, priority 2018, published 2021):
Where a name gives a salt, the structure may show the parent alone.

Tested on: APP/PS1 transgenic mice
Assay: Thioflavin S and Congo red staining of brain Aβ plaques in APP/PS1 transgenic mice
Assay type: in vivo
Conditions: 10-month-old AD mice after 2 months intragastric administration
Text: The wild-type (WT) and APP/PS1 double transgenic mice used in the experiment of the present invention were purchased from the Model Animal Research Institute of Nanjing University, and the mouse genes were identified in strict accordance with the PCR method provided.
10-month-old AD mice were anesthetized with 0.4% pentobarbital sodium. Blood was taken by perfusing the atria. 4% paraformaldehyde was perfused for whole body fixation. The brain tissue was taken and weighed. The hemibrains were put into 4% paraformaldehyde solution and used for histopathology. The other half was stored in a cryotube at −80° C. for biochemical analysis. The brain tissues fixed with 4% paraformaldehyde were embedded in wax and sliced. The plaques in the cerebral cortex and hippocampus were stained with Thioflavin S and Congo Red. Pathological images were obtained by digital microscope and fluorescence microscope and quantitatively analyzed.

For `COc1cc2c(cc1OC)C(=O)C(CC1CCN(Cc3ccccc3)CC1)C2` (stereo not shown) [Arishen, donepezil hydrochloride, reference compound], the “Number of stained Aβ deposition plaques in cortex or hippocampus (Thioflavin S, Congo red) vs normal saline AD mice” value was “no significant effect”.
